Test results from patent publication US20010029022A1.
These are yes or no findings as the source states them, for the method shown. Binding seen in cells or lysates may run through a third protein. Some binding calls cover weakened binding; strength is not graded here.

Chains of the proteins cited; added tags and fusions are not shown.
UniProt P46527: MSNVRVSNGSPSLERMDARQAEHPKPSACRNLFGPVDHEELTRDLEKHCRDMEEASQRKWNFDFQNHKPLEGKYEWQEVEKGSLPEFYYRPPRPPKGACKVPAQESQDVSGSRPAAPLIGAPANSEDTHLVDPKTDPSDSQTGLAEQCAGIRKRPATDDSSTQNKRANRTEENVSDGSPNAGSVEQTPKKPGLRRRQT
UniProt P38936: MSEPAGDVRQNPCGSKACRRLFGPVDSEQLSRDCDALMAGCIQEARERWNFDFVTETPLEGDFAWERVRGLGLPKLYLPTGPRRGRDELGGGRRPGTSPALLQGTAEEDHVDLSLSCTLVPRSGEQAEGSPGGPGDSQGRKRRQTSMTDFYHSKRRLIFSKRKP
UniProt P03129: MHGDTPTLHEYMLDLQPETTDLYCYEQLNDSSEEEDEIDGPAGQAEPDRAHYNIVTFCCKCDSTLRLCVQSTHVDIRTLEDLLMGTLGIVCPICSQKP

How the values were obtained:
His-p27 (human) [1] = target: His-p27 (human) (UniProt P46527); test: summary of the filing's own results in Example 2 (GST pull-down of Example 1)
His-p21 [2] = target: His-p21 (UniProt P38936); test: as above
His-p27 (human) [3] = target: His-p27 (human) (UniProt P46527); test: GST pull-down on glutathione-agarose beads, SDS-PAGE, Coomassie blue and Western blot
His-p21 [4] = target: His-p21 (UniProt P38936); test: as above

Measured: binding

GST-HPV16 E7 (from UniProt P03129 1-98)
binds: all assays above
